The target in this assay is retinoblastoma coiled coil protein 1 (RB1CC1) (mouse (endogenous in mouse PSCs)) (UniProt Q9ESK9). In words: co-IP; PSC lysates (1 x 10^7 cells; 100 mM KCl, 5 mM MgCl2, 10 mM Hepes pH 7.0, 0.5% NP-40, 1 mM DTT) incubated with 5 ug anti-RB1CC1, anti-ULK1 or isotype control IgG at 4 C overnight, protein A/G agarose beads, western blot. On the technique in general: A western blot detects proteins with antibodies after separation by electrophoresis.

The chains behind the UniProt entries cited, without tags or fusion partners.
UniProt Q9ESK9: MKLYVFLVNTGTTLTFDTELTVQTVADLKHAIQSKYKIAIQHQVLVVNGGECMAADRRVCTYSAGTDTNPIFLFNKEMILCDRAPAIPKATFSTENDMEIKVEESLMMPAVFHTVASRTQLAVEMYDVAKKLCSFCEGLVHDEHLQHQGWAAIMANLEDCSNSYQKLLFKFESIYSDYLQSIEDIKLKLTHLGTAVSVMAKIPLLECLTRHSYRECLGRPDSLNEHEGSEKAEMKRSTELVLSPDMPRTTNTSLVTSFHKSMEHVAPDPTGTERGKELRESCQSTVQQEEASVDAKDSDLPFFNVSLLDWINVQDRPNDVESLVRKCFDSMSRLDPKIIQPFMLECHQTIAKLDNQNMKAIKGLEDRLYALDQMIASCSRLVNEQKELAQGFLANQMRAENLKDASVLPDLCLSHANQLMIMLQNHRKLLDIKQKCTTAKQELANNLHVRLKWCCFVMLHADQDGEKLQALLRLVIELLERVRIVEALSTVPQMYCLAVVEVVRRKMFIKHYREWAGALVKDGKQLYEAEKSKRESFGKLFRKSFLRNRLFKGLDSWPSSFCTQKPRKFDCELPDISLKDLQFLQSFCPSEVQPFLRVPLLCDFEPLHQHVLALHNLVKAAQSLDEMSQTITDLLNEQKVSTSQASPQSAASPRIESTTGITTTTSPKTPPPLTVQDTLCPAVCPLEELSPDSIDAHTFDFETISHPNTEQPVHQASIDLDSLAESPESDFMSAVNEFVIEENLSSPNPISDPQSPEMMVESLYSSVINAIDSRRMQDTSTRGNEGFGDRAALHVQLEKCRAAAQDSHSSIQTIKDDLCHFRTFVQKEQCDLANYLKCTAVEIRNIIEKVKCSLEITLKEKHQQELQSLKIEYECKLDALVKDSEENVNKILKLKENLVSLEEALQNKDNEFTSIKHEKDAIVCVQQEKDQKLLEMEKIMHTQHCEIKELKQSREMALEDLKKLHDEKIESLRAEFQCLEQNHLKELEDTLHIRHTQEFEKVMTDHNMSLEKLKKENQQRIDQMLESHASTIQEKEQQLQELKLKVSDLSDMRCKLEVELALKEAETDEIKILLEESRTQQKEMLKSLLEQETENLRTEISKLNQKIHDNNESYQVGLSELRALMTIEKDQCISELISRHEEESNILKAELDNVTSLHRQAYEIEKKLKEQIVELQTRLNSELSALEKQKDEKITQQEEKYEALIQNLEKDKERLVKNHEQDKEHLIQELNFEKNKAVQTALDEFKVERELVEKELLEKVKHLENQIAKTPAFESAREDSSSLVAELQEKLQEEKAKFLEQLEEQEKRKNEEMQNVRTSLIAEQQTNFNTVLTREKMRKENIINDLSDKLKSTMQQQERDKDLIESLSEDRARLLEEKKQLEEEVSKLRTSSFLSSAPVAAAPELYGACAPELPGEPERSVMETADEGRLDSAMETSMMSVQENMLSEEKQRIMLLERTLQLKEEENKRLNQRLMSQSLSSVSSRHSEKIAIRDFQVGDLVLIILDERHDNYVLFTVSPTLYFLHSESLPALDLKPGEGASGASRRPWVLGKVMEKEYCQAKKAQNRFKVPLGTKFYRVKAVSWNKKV

No constants are given. Whether binding was seen depends on the method and setting. In cells and extracts the contact can be indirect. Some binding calls cover weakened binding; strength is not graded here.

B1: ULK1 (protein, UniProt O70405 1-1051)
chain: MEPGRGGVETVGKFEFSRKDLIGHGAFAVVFKGRHREKHDLEVAVKCINKKNLAKSQTLLGKEIKILKELKHENIVALYDFQEMANSVYLVMEYCNGGDLADYLHTMRTLSEDTVRLFLQQIAGAMRLLHSKGIIHRDLKPQNILLSNPGGRRANPSNIRVKIADFGFARYLQSNMMAATLCGSPMYMAPEVIMSQHYDGKADLWSIGTIVYQCLTGKAPFQASSPQDLRLFYEKNKTLVPAIPRETSAPLRQLLLALLQRNHKDRMDFDEFFHHPFLDASTPIKKSPPVPVPSYPSSGSGSSSSSSSASHLASPPSLGEMPQLQKTLTSPADAAGFLQGSRDSGGSSKDSCDTDDFVMVPAQFPGDLVAEAASAKPPPDSLLCSGSSLVASAGLESHGRTPSPSPTCSSSPSPSGRPGPFSSNRYGASVPIPVPTQVHNYQRIEQNLQSPTQQQTARSSAIRRSGSTTPLGFGRASPSPPSHTDGAMLARKLSLGGGRPYTPSPQVGTIPERPSWSRVPSPQGADVRVGRSPRPGSSVPEHSPRTTGLGCRLHSAPNLSDFHVVRPKLPKPPTDPLGATFSPPQTSAPQPCPGLQSCRPLRGSPKLPDFLQRSPLPPILGSPTKAGPSFDFPKTPSSQNLLTLLARQGVVMTPPRNRTLPDLSEASPFHGQQLGSGLRPAEDTRGPFGRSFSTSRITDLLLKAAFGTQASDSGSTDSLQEKPMEIAPSAGFGGTLHPGARGGGASSPAPVVFTVGSPPSGATPPQSTRTRMFSVGSSSSLGSTGSSSARHLVPGACGEAPELSAPGHCCSLADPLAANLEGAVTFEAPDLPEETLMEQEHTETLHSLRFTLAFAQQVLEIAALKGSASEAAGGPEYQLQESVVADQISQLSREWGFAEQLVLYLKVAELLSSGLQTAIDQIRAGKLCLSSTVKQVVRRLNELYKASVVSCQGLSLRLQRFFLDKQRLLDGIHGVTAERLILSHAVQMVQSAALDEMFQHREGCVPRYHKALLLLEGLQHTLTDQADIENIAKCKLCIERRLSALLSGVYA
Turning to B1, the binding entry was “binds”.

These data come from PMC6147947.
